The supplement of paper PMC10849652
Some of the results follow.

The chains behind the UniProt entries cited, without tags or fusion partners. Where a name states a change or a piece, a line headed by the entry shows the natural chain unless it says otherwise.
UniProt P62699: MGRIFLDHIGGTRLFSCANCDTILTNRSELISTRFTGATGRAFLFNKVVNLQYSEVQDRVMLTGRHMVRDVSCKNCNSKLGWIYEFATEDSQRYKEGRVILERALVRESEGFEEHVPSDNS
UniProt O43592: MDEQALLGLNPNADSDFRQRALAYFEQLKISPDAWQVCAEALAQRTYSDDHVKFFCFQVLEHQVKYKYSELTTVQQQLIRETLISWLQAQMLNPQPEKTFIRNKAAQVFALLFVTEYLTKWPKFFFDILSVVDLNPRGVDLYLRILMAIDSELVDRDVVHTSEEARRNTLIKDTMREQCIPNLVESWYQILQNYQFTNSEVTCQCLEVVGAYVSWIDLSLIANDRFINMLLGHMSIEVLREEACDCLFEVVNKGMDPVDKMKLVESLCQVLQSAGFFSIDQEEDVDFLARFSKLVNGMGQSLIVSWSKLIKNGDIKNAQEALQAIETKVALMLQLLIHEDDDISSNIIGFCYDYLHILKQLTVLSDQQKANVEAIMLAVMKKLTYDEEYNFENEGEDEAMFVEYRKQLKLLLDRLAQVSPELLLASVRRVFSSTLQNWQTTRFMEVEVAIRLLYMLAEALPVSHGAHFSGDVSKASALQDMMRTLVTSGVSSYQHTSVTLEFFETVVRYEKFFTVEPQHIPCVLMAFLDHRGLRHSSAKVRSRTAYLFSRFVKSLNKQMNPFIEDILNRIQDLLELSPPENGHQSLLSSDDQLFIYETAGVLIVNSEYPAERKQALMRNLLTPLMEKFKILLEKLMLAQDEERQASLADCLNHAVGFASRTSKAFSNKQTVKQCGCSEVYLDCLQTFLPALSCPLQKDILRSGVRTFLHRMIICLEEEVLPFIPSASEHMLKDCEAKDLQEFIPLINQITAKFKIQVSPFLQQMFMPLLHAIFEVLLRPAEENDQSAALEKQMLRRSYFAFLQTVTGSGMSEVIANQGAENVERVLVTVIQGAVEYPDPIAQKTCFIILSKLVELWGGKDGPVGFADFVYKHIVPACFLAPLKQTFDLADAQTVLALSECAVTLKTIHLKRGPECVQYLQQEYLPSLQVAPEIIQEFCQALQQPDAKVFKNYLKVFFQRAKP
UniProt Q6FIF0: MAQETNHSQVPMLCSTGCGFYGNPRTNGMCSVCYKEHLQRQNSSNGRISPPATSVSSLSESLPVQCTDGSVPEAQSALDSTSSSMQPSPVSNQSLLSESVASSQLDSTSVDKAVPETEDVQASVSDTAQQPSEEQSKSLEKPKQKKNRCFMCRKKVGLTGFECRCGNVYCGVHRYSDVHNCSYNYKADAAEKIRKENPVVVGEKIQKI
UniProt Q9NUE0: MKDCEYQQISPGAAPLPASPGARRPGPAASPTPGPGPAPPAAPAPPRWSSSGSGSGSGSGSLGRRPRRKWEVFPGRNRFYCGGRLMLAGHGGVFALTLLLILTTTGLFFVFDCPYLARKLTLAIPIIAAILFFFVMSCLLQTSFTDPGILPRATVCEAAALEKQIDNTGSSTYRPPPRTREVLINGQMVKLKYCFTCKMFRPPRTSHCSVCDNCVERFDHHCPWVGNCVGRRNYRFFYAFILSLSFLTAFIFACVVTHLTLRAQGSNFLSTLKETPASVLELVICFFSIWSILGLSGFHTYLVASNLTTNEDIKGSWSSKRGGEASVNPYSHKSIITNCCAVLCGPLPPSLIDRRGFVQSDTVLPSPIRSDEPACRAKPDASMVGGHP
UniProt P12956: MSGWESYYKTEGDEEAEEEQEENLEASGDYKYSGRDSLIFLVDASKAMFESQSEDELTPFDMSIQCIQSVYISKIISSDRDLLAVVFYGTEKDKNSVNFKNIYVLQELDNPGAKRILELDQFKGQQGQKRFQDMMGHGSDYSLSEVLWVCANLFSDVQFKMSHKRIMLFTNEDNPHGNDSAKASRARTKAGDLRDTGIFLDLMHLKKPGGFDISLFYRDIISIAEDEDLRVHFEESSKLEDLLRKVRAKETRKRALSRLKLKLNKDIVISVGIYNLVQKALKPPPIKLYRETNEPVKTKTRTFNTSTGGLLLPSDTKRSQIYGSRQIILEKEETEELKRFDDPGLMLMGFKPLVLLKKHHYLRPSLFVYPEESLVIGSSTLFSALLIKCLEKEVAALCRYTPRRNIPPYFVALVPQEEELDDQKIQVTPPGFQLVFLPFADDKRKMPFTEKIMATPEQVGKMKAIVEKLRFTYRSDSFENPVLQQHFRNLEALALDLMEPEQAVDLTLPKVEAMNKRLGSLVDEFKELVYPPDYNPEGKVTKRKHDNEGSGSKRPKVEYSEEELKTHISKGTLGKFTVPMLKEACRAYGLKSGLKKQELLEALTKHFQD
UniProt Q6PJT7: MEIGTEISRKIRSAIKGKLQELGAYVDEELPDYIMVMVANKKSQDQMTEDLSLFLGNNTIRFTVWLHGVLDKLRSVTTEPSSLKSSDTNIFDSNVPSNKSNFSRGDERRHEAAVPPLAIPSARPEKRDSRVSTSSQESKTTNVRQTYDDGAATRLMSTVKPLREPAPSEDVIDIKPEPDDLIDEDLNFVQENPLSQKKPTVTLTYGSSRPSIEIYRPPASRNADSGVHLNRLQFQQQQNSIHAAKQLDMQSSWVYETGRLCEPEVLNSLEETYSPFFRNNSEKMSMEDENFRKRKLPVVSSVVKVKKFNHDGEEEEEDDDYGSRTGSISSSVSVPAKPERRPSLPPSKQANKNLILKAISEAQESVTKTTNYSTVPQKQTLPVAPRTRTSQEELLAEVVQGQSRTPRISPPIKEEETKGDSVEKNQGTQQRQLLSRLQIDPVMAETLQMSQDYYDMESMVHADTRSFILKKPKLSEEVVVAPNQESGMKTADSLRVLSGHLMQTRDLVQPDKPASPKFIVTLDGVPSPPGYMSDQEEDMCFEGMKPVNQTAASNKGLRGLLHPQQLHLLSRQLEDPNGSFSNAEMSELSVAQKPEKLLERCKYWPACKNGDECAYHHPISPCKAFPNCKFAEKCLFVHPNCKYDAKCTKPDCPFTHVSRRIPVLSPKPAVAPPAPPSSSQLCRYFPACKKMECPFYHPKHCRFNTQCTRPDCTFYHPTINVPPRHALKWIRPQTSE
UniProt Q9UIA9: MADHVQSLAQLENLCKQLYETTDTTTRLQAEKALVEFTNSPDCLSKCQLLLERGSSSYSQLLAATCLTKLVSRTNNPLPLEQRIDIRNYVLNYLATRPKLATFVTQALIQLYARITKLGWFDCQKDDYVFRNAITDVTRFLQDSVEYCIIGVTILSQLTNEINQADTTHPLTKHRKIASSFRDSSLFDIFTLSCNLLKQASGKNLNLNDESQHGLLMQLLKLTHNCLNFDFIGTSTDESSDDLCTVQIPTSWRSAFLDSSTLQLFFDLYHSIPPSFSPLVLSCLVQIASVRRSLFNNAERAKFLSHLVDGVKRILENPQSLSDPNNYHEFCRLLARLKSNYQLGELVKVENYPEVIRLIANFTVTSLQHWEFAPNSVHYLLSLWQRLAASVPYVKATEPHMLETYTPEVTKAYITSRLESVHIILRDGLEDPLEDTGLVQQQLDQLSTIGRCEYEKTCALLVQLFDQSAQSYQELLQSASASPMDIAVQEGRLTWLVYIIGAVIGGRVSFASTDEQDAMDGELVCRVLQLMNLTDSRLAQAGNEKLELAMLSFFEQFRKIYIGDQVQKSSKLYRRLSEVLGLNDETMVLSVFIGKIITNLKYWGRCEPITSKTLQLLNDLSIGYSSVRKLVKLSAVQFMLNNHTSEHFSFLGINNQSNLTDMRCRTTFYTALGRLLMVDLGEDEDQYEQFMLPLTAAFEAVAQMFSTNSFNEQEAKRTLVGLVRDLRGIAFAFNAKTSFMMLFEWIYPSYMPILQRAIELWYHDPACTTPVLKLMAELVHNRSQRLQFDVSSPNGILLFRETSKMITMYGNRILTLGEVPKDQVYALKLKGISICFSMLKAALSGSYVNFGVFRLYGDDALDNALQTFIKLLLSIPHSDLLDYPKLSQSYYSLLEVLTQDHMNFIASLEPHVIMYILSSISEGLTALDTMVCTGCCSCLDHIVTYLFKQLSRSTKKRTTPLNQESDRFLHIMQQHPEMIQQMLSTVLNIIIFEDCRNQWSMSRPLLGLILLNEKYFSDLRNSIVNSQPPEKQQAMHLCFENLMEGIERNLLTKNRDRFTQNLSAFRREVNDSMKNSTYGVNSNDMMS
UniProt Q96K21: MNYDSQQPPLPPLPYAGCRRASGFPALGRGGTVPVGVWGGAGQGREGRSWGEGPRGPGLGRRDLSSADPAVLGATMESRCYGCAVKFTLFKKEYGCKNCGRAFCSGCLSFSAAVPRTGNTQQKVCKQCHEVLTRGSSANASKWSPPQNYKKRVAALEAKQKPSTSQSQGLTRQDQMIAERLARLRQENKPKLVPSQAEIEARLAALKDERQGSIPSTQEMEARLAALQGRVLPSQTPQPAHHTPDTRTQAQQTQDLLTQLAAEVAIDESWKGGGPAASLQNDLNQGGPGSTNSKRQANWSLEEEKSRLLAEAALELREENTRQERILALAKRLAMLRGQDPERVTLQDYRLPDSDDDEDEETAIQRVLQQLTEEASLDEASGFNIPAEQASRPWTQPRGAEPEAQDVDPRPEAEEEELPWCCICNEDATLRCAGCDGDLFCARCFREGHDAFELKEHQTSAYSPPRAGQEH
UniProt Q7Z7L7: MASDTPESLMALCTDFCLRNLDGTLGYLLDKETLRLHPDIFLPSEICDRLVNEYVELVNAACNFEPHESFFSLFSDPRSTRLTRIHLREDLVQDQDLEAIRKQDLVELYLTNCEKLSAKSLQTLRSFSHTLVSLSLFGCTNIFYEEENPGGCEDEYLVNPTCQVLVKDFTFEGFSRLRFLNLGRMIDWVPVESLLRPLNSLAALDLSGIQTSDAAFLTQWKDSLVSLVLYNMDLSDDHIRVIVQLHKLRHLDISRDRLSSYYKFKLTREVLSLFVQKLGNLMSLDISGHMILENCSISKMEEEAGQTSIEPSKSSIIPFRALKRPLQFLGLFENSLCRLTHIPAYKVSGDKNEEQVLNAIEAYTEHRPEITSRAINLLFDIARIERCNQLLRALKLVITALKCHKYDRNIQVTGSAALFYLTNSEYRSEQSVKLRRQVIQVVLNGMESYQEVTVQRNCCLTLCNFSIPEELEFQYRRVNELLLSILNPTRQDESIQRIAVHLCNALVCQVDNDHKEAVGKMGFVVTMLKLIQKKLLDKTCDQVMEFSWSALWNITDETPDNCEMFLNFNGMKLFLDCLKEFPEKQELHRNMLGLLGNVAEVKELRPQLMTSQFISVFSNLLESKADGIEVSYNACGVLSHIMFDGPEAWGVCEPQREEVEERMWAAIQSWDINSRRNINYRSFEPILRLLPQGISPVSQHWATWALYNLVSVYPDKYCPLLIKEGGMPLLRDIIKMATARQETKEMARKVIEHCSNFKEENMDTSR
UniProt Q9BSR8: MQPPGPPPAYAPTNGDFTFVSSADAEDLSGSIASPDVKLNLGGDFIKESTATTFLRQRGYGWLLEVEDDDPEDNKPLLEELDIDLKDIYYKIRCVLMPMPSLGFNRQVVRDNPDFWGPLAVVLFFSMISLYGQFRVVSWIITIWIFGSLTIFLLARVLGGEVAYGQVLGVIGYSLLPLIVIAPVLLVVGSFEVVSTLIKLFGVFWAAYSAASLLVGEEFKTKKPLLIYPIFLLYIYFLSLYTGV
UniProt Q9C0B5: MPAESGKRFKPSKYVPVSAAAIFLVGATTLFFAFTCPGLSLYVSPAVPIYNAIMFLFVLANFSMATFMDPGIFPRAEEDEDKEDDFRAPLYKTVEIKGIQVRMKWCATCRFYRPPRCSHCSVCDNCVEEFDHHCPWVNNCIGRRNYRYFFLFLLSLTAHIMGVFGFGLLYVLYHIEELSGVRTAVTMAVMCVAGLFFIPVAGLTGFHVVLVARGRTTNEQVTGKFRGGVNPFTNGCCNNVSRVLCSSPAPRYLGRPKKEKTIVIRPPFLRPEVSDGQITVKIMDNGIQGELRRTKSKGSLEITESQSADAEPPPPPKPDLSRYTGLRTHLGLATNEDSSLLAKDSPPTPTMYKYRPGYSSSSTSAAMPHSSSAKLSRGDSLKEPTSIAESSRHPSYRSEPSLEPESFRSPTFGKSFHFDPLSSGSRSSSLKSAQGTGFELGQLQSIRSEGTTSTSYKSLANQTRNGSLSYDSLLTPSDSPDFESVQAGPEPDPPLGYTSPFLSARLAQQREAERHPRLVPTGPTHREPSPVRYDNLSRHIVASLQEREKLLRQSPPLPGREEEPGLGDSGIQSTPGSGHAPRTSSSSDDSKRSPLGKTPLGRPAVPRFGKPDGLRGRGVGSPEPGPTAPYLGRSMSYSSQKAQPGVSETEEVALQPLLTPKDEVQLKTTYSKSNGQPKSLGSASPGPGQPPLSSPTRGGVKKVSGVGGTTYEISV
UniProt O95619, whole entry, looked up: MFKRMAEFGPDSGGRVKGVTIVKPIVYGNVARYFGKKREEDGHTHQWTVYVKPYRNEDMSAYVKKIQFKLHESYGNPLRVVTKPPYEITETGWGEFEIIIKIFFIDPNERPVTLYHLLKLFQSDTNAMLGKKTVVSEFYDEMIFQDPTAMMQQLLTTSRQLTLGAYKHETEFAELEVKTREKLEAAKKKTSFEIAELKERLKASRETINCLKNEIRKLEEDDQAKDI

Tests used:
Experiment in all cases: log2 fold change, soluble protein after heating vs DMSO (PISA); higher = thermal stabilisation; K562 lysate, 10 uM; active = over 0.2 and 3.5 SD of the protein, either way, in both replicates (recomputed)
[1] = compound: CCCS(=O)(=O)Nc1ccc(F)c(C(=O)c2c[nH]c3ncc(-c4ccc(Cl)cc4)cc23)c1F [vemurafenib]
How it was run: (§1)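 Soluble protein was defined as the supernatant remaining after 21,000xg for 90 min, following pooling of heated aliquots and adjustment to 0.5% NP-40 at 4°C. Before that, crude K562 extract at 1 mg/mL protein in PBS pH 7.4 with 1 mM MgCl2 was treated with 10 μM compound for 30 min and heated for 3 min across 48°C-58°C. Quantification used TMTpro 16plex LC-MS/MS with channel sums equalised, and values are log-two fold changes in thermal stability relative to solvent controls from duplicates.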

[2] = compound: CCCS(=O)(=O)Nc1ccc(F)c(C(=O)c2c[nH]c3ncc(Cl)cc23)c1F
How it was run: as §1

[3] = compound: CCN(CCCOc1ccc2c(Nc3cc(CC(=O)Nc4cccc(F)c4)[nH]n3)ncnc2c1)CCOP(=O)(O)O [barasertib]
How it was run: as §1

[4] = compound: CC[C@@H]1C(=O)N(C)c2cnc(Nc3ccc(C(=O)NC4CCN(C)CC4)cc3OC)nc2N1C1CCCC1
How it was run: as §1

[5] = compound: CC[C@@H]1C(=O)N(C)c2cnc(Nc3ccc(C(=O)N[C@H]4CC[C@H](N5CCN(CC6CC6)CC5)CC4)cc3OC)nc2N1C(C)C [volasertib]
How it was run: as §1

[6] = compound: CCn1c(C(=O)N(C2CC2)C2CC2)cc2c3c(ncn3C)c(Nc3cc(C)n(C)n3)nc21
How it was run: as §1

[7] = compound: CCn1cc(-c2ccnc3[nH]c(-c4cccc(CN(C)C)c4)cc23)c(-c2ccc(NC(=O)N(C)C)cc2)n1
How it was run: as §1

[8] = compound: CN1CCC(CNc2ccc3ncc(-c4cccc(OC(F)(F)F)c4)n3n2)CC1
How it was run: as §1

[9] = compound: CN1CCN(CCOc2cc(OC3CCOCC3)c3c(Nc4c(Cl)ccc5c4OCO5)ncnc3c2)CC1 [saracatinib]
How it was run: as §1

[10] = compound: CN1CCN(c2nc(C3=C(c4c[nH]c5ccccc45)C(=O)NC3=O)c3ccccc3n2)CC1 [sotrastaurin]
How it was run: as §1

[11] = compound: CN1CC[C@H](c2c(O)cc(O)c3c(=O)cc(-c4ccccc4Cl)oc23)[C@H](O)C1 [alvocidib]
How it was run: as §1

[12] = compound: CN1CCc2c(c3ccccc3n2Cc2ccc(C(=O)NO)cc2)C1 [Tubastatin A]
How it was run: as §1

[13] = compound: CNC(=O)C1=CC=CC=C1NC2=NC(=NC=C2Cl)NC3=C(C=C(C=C3)N4CCOCC4)OC
How it was run: as §1

[14] = compound: CNC(=O)c1ccc(Nc2ncc(C(F)(F)F)c(NCc3nccnc3N(C)S(C)(=O)=O)n2)cc1 [defactinib]
How it was run: as §1

[15] = compound: CNc1nc(-c2ccc3c(N)n[nH]c3c2)cc(N2C[C@@H](C(=O)NC3CCCCC3)CC[C@H]2C)n1
How it was run: as §1

[16] = compound: COC(=O)N[C@@H](C)CNc1nccc(-c2cn(C(C)C)nc2-c2cc(Cl)cc(NS(C)(=O)=O)c2F)n1 [encorafenib]
How it was run: as §1

[17] = compound: COC(=O)[C@H](CCSC)NC(=O)C1=C(C=C(C=C1)NC[C@H](CS)N)C2=CC=CC=C2
How it was run: as §1

[18] = compound: COc1cc(Nc2ncc3c(n2)-c2ccc(Cl)cc2C(c2c(F)cccc2OC)=NC3)ccc1C(=O)O [alisertib]
How it was run: as §1

[19] = compound: COc1cc2nc(-c3cc(F)ccc3O)nc(N[C@@H]3CNC[C@H]3C(C)(C)O)c2cc1OC
How it was run: as §1

[20] = compound: COc1cc2ncnc(Nc3ccc(F)c(Cl)c3)c2cc1OCCCN1CCOCC1 [gefitinib]
How it was run: as §1

Target	log2 fold change [1]	log2 fold change [2]	log2 fold change [3]	log2 fold change [4]	log2 fold change [5]	log2 fold change [6]	log2 fold change [7]	log2 fold change [8]	log2 fold change [9]	log2 fold change [10]	log2 fold change [11]	log2 fold change [12]	log2 fold change [13]	log2 fold change [14]	log2 fold change [15]	log2 fold change [16]	log2 fold change [17]	log2 fold change [18]	log2 fold change [19]	log2 fold change [20]
YPEL5 (UniProt P62699)	inactive: 0.038	inactive: 0.013	inactive: 0.044	inactive: -0.005	inactive: 0.023	inactive: 0.093	inactive: -0.055	inactive: 0.054	inactive: -0.033	inactive: -0.08	inactive: -0.004	inactive: 0.025	inactive: -0.03	inactive: -0.026	inactive: -0.012	inactive: 0.025	inactive: -0.038	inactive: 0.047	inactive: -0.013	inactive: 0.058
XPOT (UniProt O43592)	inactive: -0.023	inactive: 0.014	inactive: 0.011	inactive: -0.097	inactive: -0.047	inactive: 0.036	inactive: -0.065	inactive: -0.001	inactive: -0.005	inactive: 0.002	inactive: 0.004	inactive: -0.133	inactive: -0.004	inactive: 0.011	inactive: -0.042	inactive: 0.005	inactive: -0.094	inactive: 0	inactive: 0.005	inactive: 0.01
ZFAND6 (UniProt Q6FIF0)	inactive: -0.032	inactive: 0.006	inactive: 0.04	inactive: 0.049	inactive: 0.015	inactive: 0.092	inactive: 0.015	inactive: 0	inactive: -0.016	inactive: -0.097	inactive: -0.058	inactive: 0.126	inactive: 0.084	inactive: -0.015	inactive: 0.002	inactive: 0.015	inactive: -0.02	inactive: -0.02	inactive: -0.028	inactive: 0.014
ZDHHC18 (UniProt Q9NUE0)	inactive: 0.043	inactive: 0.026	inactive: 0.016	inactive: -0.019	inactive: -0.052	inactive: -0.068	inactive: -0.138	inactive: 0.085	inactive: 0.036	inactive: 0.04	inactive: -0.09	inactive: -0.016	inactive: 0.222	inactive: 0.029	inactive: -0.044	inactive: -0.038	inactive: 0.042	inactive: -0.131	inactive: -0.036	inactive: -0.069
XRCC6 (UniProt P12956)	inactive: -0.015	inactive: 0.001	inactive: -0.001	inactive: -0.013	inactive: -0.01	inactive: -0.004	inactive: 0.011	inactive: -0.046	inactive: -0.01	inactive: 0.004	inactive: 0.003	inactive: 0.034	inactive: -0.014	inactive: -0.023	inactive: 0.006	inactive: -0.006	inactive: 0.011	inactive: 0.015	inactive: -0.007	inactive: 0.013
ZC3H14 (UniProt Q6PJT7)	inactive: 0.051	inactive: 0.063	inactive: 0.059	inactive: 0.006	inactive: 0.004	inactive: -0.013	inactive: 0	inactive: 0.015	inactive: 0.005	inactive: 0.006	inactive: -0.013	inactive: -0.084	inactive: 0.019	inactive: 0.014	inactive: 0.07	inactive: 0.078	inactive: -0.069	inactive: 0.021	inactive: 0.019	inactive: -0.018
XPO7 (UniProt Q9UIA9)	inactive: -0.008	inactive: 0	inactive: 0.012	inactive: -0.009	inactive: 0	inactive: 0.018	inactive: -0.046	inactive: 0.017	inactive: 0.009	inactive: 0.015	inactive: 0.005	inactive: -0.037	inactive: -0.006	inactive: -0.003	inactive: -0.011	inactive: 0.011	inactive: -0.026	inactive: -0.004	inactive: 0.009	inactive: 0.003
ZFYVE19 (UniProt Q96K21)	inactive: 0	inactive: 0.02	inactive: 0.016	inactive: 0.077	inactive: 0.023	inactive: 0.006	active: -0.232	inactive: 0.126	inactive: -0.027	inactive: 0.013	inactive: -0.141	inactive: 0.026	inactive: -0.037	inactive: -0.002	inactive: 0.008	inactive: -0.001	inactive: -0.04	inactive: 0.008	inactive: 0	inactive: 0.019
XYLB (UniProt O75191)	inactive: 0.094	inactive: 0.023	inactive: 0.018	inactive: 0.014	inactive: -0.086	inactive: -0.006	inactive: 0.132	inactive: -0.049	inactive: -0.01	inactive: -0.019	inactive: 0.139	inactive: 0.043	inactive: -0.012	inactive: -0.066	inactive: 0.038	inactive: 0.161	inactive: 0.001	inactive: -0.146	inactive: 0.014	inactive: -0.069
ZER1 (UniProt Q7Z7L7)	inactive: 0.045	inactive: 0.011	inactive: -0.074	inactive: 0.056	inactive: -0.038	inactive: 0.082	inactive: -0.202	inactive: 0.056	inactive: -0.116	inactive: -0.037	inactive: -0.073	inactive: -0.085	inactive: 0.037	inactive: 0.125	inactive: 0.037	inactive: 0.033	inactive: -0.178	inactive: 0.067	inactive: -0.044	inactive: -0.059
YIPF4 (UniProt Q9BSR8)	inactive: 0.013	inactive: 0.025	inactive: -0.023	inactive: -0.026	inactive: -0.005	inactive: 0.012	inactive: -0.024	inactive: -0.017	inactive: 0.016	inactive: 0.017	inactive: 0.033	inactive: 0.034	inactive: 0.021	inactive: 0.041	inactive: 0.091	inactive: 0.022	inactive: -0.036	inactive: 0.028	inactive: 0.011	inactive: -0.049
XRCC5 (UniProt P13010)	inactive: 0.001	inactive: 0.003	inactive: 0.002	inactive: -0.036	inactive: -0.045	inactive: 0.014	inactive: 0.079	inactive: -0.052	inactive: -0.007	inactive: -0.01	inactive: 0.016	inactive: -0.066	inactive: -0.02	inactive: 0.004	inactive: -0.021	inactive: 0.002	inactive: 0.076	inactive: 0.005	inactive: -0.006	inactive: -0.006
YWHAQ (UniProt P27348)	inactive: -0.029	inactive: 0.009	inactive: -0.023	inactive: 0.025	inactive: 0.023	inactive: -0.003	active: 0.625	inactive: -0.092	inactive: -0.012	inactive: -0.047	inactive: 0.16	inactive: -0.021	inactive: -0.006	inactive: 0	inactive: 0.023	inactive: -0.025	inactive: -0.045	inactive: -0.014	inactive: 0.008	inactive: -0.06
ZDHHC5 (UniProt Q9C0B5)	inactive: 0.043	inactive: 0.038	inactive: 0.011	inactive: 0.006	inactive: 0.005	inactive: -0.019	inactive: 0.052	inactive: -0.008	inactive: 0.017	inactive: 0.013	inactive: -0.002	inactive: 0.049	inactive: 0.017	inactive: 0.038	inactive: 0.042	inactive: 0.003	inactive: -0.034	inactive: -0.041	inactive: 0.017	inactive: 0.095
YEATS4 (UniProt O95619)	inactive: -0.032	inactive: 0.003	inactive: 0.05	inactive: 0.045	inactive: -0.028	inactive: 0.014	active: 0.746	inactive: 0	inactive: 0.031	inactive: 0.022	inactive: 0.105	inactive: 0.004	inactive: 0.012	inactive: 0.007	inactive: -0.054	inactive: -0.004	inactive: -0.062	active: 0.315	inactive: -0.008	inactive: -0.064
XRCC1 (UniProt P18887)	inactive: -0.004	inactive: -0.019	inactive: -0.014	inactive: -0.019	inactive: -0.004	inactive: -0.035	inactive: 0.106	inactive: -0.126	inactive: 0.026	inactive: 0.007	inactive: 0.054	inactive: 0.001	inactive: 0.017	inactive: 0.005	inactive: -0.03	inactive: 0.015	inactive: -0.021	inactive: 0.021	inactive: -0.003	inactive: -0.016

Some of the entries so far, with bars between the fields.
Target | log2 fold change [1] | log2 fold change [2] | log2 fold change [3] | log2 fold change [4] | log2 fold change [5] | log2 fold change [6] | log2 fold change [7] | log2 fold change [8] | log2 fold change [9] | log2 fold change [10] | log2 fold change [11] | log2 fold change [12] | log2 fold change [13] | log2 fold change [14] | log2 fold change [15] | log2 fold change [16] | log2 fold change [17] | log2 fold change [18] | log2 fold change [19] | log2 fold change [20]
ZFYVE19 (UniProt Q96K21) | inactive: 0 | inactive: 0.02 | inactive: 0.016 | inactive: 0.077 | inactive: 0.023 | inactive: 0.006 | active: -0.232 | inactive: 0.126 | inactive: -0.027 | inactive: 0.013 | inactive: -0.141 | inactive: 0.026 | inactive: -0.037 | inactive: -0.002 | inactive: 0.008 | inactive: -0.001 | inactive: -0.04 | inactive: 0.008 | inactive: 0 | inactive: 0.019
XRCC5 (UniProt P13010) | inactive: 0.001 | inactive: 0.003 | inactive: 0.002 | inactive: -0.036 | inactive: -0.045 | inactive: 0.014 | inactive: 0.079 | inactive: -0.052 | inactive: -0.007 | inactive: -0.01 | inactive: 0.016 | inactive: -0.066 | inactive: -0.02 | inactive: 0.004 | inactive: -0.021 | inactive: 0.002 | inactive: 0.076 | inactive: 0.005 | inactive: -0.006 | inactive: -0.006
XRCC1 (UniProt P18887) | inactive: -0.004 | inactive: -0.019 | inactive: -0.014 | inactive: -0.019 | inactive: -0.004 | inactive: -0.035 | inactive: 0.106 | inactive: -0.126 | inactive: 0.026 | inactive: 0.007 | inactive: 0.054 | inactive: 0.001 | inactive: 0.017 | inactive: 0.005 | inactive: -0.03 | inactive: 0.015 | inactive: -0.021 | inactive: 0.021 | inactive: -0.003 | inactive: -0.016
